This is one part of the list.
Legend:
Test in all cases: log2 fold change, soluble protein after heating vs DMSO (PISA); higher = thermal stabilisation; K562 cells, 10 uM, 30 min; active = over 0.2 and 3.5 SD of the protein, either way, in both replicates (recomputed)
[1] = compound: CC1=C(C=C(C=C1)NC(=O)C2=CC(=CC=C2)C(C)(C)C#N)NC3=CC4=C(C=C3)N=CN(C4=O)C
How it was run: (§1)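 Thermal stability values are relative to control samples and come from duplicates. They are expressed as log2 fold changes. For measurement, K562 cells (2×10^6 cells/mL) received 10 μM compound for 30 min, and aliquots were heated for 3 min over 48°C-58°C, pooled, and extracted at 4°C in PBS with 0.5% NP-40. Soluble protein, the supernatant after 21,000xg for 90 min, was quantified by TMTpro 16plex LC-MS/MS with equalised channel sums.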

By UniProt entry, the sequences of proteins in these tests, tags left out. Where a name states a change or a piece, a line headed by the entry shows the natural chain unless it says otherwise.
UniProt Q7Z3U7: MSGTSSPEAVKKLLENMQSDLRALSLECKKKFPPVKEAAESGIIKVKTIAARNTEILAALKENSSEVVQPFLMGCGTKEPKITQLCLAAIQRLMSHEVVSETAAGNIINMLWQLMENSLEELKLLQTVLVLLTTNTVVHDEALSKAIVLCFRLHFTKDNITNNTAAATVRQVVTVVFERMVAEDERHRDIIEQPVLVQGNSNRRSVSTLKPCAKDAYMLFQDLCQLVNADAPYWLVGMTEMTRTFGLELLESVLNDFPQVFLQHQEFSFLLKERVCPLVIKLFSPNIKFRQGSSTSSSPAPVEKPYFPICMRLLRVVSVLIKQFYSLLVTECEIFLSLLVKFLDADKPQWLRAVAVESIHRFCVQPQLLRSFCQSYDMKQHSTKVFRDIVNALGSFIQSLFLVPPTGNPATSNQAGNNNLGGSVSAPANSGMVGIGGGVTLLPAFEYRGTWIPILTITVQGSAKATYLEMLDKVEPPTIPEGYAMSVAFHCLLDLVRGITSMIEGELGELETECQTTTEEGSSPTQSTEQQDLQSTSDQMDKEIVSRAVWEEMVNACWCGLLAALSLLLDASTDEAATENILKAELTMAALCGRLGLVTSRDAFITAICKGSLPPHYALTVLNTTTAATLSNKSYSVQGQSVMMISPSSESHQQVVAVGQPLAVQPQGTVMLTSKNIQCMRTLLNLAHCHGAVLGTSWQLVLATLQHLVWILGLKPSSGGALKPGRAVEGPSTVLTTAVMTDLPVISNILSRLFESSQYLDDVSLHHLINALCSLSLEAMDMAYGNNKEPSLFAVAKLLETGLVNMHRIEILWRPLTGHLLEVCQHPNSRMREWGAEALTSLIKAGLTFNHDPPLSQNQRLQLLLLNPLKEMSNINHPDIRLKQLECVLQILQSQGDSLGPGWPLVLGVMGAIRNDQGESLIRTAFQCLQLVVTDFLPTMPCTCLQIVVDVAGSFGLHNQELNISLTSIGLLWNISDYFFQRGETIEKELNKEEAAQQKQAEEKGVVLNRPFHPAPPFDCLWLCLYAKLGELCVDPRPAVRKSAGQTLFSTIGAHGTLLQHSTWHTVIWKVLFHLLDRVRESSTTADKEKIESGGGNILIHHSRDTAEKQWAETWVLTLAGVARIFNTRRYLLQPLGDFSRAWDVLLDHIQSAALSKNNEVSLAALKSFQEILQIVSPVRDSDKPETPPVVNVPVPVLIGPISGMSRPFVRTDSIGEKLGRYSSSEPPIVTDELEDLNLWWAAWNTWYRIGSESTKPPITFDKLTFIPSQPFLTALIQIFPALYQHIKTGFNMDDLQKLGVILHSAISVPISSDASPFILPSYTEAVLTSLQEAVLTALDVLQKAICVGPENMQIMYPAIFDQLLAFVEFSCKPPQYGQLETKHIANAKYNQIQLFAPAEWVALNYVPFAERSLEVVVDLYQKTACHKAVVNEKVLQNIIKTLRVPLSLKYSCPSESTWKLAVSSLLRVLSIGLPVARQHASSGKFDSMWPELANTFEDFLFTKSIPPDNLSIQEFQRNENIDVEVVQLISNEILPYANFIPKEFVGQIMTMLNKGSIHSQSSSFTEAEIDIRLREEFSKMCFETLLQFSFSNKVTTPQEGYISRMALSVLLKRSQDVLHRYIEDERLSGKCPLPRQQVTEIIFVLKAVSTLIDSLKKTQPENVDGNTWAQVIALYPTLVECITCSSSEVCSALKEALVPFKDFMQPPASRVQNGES
UniProt Q8TAP9: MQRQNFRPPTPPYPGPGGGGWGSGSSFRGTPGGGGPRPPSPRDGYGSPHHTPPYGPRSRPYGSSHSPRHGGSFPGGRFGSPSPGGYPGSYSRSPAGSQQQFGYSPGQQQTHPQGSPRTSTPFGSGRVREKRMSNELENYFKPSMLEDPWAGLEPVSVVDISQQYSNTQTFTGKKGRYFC
UniProt Q9BRT3: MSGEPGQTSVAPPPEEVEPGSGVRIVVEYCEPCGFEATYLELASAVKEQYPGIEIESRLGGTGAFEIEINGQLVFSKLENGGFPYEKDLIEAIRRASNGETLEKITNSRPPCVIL
UniProt Q99797: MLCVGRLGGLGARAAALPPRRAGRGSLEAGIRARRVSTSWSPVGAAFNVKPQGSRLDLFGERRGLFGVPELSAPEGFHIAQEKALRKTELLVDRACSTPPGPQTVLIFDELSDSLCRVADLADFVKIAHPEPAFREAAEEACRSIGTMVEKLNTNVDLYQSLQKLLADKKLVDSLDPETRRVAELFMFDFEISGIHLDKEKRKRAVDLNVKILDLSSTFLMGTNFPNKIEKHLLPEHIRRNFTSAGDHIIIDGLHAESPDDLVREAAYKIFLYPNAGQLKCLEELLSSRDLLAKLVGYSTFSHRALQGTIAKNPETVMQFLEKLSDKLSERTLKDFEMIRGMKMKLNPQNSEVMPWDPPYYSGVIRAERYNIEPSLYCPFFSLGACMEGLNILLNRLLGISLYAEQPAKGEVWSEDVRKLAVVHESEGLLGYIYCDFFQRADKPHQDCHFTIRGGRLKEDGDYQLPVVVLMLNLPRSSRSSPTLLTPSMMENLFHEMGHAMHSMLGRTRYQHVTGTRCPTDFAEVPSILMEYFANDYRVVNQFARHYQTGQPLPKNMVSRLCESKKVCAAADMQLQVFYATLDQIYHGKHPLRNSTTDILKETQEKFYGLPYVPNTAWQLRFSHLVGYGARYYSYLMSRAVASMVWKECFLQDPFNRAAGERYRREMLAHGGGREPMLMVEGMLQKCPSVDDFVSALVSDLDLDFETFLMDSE
UniProt Q7L9L4: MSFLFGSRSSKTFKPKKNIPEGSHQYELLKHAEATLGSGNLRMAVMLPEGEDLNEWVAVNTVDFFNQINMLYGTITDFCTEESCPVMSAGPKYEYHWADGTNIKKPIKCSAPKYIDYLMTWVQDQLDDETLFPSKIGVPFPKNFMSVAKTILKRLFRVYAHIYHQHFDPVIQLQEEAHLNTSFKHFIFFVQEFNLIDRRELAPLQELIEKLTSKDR
UniProt Q96EN8: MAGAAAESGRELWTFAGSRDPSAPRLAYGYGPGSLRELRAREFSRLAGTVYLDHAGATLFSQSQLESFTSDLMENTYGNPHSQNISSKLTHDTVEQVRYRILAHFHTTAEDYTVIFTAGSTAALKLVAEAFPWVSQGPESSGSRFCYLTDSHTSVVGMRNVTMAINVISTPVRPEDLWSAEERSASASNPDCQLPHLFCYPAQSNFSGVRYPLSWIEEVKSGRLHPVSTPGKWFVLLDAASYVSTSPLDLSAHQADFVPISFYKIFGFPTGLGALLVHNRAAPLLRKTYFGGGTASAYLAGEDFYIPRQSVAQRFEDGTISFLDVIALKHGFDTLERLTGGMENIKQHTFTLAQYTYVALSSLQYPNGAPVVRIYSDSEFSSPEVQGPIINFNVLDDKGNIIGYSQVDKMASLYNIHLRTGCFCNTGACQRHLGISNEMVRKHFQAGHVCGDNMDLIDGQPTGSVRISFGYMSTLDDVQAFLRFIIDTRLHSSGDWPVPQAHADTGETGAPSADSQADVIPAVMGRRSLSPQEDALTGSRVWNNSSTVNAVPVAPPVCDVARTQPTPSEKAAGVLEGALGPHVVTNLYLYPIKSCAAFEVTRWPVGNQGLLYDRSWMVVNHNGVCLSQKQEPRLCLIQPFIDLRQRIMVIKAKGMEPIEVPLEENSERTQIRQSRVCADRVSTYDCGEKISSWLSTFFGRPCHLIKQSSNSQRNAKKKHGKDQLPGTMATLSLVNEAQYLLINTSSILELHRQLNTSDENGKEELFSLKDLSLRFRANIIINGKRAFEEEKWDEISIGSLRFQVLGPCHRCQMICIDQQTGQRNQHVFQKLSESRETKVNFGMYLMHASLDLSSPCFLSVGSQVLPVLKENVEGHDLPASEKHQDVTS
UniProt Q14149: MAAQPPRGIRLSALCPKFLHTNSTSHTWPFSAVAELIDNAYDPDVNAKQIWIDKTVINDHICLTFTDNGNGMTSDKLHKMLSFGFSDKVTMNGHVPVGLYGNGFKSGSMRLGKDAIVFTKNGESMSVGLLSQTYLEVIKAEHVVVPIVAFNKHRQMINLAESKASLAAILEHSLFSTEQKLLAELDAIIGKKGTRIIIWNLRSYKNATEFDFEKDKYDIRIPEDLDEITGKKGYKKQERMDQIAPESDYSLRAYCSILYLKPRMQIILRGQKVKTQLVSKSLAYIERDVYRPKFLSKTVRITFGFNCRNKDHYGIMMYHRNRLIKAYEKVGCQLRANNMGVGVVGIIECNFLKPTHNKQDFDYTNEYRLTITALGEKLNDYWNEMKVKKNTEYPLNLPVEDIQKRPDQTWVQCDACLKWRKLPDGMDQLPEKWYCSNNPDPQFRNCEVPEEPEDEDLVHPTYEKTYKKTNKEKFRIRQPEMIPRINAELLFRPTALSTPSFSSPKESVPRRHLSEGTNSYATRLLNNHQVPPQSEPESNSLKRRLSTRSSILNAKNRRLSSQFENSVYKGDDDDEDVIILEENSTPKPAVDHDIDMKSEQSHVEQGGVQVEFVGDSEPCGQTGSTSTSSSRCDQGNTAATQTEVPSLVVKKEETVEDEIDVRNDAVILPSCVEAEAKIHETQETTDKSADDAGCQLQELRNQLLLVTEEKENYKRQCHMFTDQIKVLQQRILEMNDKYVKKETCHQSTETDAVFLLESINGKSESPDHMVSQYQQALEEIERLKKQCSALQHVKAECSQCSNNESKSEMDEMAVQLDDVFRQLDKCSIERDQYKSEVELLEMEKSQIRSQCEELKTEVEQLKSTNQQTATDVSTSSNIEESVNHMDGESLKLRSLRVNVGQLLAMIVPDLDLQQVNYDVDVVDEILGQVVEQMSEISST
UniProt Q8N4V1: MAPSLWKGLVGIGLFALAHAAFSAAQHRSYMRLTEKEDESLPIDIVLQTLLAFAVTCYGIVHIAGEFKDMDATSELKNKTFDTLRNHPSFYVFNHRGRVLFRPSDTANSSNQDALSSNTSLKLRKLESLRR
UniProt Q5XKP0: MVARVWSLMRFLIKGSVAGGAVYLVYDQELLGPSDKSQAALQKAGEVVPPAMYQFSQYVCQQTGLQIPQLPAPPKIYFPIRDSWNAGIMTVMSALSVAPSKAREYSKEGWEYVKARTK
UniProt Q9H8M7: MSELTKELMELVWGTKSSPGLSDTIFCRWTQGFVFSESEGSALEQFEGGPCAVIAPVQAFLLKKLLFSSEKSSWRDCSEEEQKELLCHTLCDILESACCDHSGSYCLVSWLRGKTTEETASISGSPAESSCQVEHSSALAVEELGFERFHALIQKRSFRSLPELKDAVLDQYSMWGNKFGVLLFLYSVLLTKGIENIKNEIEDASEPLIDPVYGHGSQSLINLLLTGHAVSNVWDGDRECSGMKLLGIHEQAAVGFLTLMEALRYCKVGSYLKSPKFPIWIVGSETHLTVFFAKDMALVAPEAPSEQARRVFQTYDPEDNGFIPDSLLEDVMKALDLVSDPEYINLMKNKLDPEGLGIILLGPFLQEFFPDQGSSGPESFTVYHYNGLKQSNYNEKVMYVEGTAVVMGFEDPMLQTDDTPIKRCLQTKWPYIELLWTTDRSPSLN
UniProt P34949: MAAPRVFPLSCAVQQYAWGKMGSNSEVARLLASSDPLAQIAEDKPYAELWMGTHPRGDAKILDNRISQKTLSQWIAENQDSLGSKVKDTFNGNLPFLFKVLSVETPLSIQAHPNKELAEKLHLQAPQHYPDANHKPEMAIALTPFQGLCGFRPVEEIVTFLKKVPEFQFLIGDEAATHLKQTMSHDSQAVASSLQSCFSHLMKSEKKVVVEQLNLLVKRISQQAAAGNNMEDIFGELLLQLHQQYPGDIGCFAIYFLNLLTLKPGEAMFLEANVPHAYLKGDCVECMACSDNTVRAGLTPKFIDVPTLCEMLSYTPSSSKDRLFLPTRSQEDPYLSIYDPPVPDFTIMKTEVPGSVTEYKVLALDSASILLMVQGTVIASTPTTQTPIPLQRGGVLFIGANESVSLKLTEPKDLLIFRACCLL
UniProt Q9H000: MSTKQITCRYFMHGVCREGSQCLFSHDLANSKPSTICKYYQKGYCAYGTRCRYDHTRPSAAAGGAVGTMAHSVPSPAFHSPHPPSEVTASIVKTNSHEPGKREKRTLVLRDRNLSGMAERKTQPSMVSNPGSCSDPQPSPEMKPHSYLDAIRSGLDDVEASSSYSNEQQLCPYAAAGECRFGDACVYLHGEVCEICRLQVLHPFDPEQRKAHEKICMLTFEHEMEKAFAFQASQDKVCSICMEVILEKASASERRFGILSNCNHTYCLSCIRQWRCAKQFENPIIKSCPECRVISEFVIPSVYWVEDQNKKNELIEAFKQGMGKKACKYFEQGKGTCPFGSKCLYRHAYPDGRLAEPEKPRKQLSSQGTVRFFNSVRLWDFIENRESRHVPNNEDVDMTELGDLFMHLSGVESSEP
UniProt Q9H081: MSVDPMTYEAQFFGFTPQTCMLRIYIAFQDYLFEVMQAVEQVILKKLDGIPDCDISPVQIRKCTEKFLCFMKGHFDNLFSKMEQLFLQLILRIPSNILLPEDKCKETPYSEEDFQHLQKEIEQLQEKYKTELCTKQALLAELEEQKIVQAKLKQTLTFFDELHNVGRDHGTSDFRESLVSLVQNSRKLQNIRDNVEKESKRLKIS

[2] = compound: CC1=C(C=C(C=C1)NC(=O)C2=CC(=CC=C2)N(C)C)NC(=O)C3=CC=C(C=C3)O
How it was run: as §1

[3] = compound: CC1=CC=C(C=C1)SC2=C3C=C(SC3=CN=C2)C(=O)N
How it was run: as §1

[4] = compound: CC1=NC(=CC=C1)C2=C(N=C(N2)C(C)(C)C)C3=CC4=NC=CN=C4C=C3
How it was run: as §1

Nexturastat A = compound: CCCCN(Cc1ccc(C(=O)NO)cc1)C(=O)Nc1ccccc1 [Nexturastat A]
How it was run: as §1

vemurafenib = compound: CCCS(=O)(=O)Nc1ccc(F)c(C(=O)c2c[nH]c3ncc(-c4ccc(Cl)cc4)cc23)c1F [vemurafenib]
How it was run: as §1

[5] = compound: CCCS(=O)(=O)Nc1ccc(F)c(C(=O)c2c[nH]c3ncc(Cl)cc23)c1F
How it was run: as §1

[6] = compound: CCCc1cc(C)[nH]c(=O)c1CNC(=O)c1cc(-c2ccnc(N3CCN(C)CC3)c2)cc2c1cnn2C(C)C
How it was run: as §1

givinostat = compound: CCN(CC)Cc1ccc2cc(COC(=O)Nc3ccc(C(=O)NO)cc3)ccc2c1 [givinostat]
How it was run: as §1

barasertib = compound: CCN(CCCOc1ccc2c(Nc3cc(CC(=O)Nc4cccc(F)c4)[nH]n3)ncnc2c1)CCOP(=O)(O)O [barasertib]
How it was run: as §1

Measured: log2 fold change

MON2 isoform 5 (UniProt Q7Z3U7)
inactive: [1] -0.002 | [2] -0.009 | [3] -0.036 | [4] 0.018 | Nexturastat A 0 | vemurafenib 0.017 | [5] 0.085 | [6] 0.046 | givinostat 0.029 | barasertib 0.039

MPHOSPH10 (UniProt O00566)
inactive: [1] 0.052 | [2] -0.01 | [3] -0.031 | [4] -0.079 | Nexturastat A 0.098 | vemurafenib -0.041 | [5] 0.009 | [6] 0.047 | givinostat 0.087 | barasertib -0.107

MPLKIP (UniProt Q8TAP9)
inactive: [1] -0.052 | [2] -0.06 | [3] -0.048 | [4] -0.019 | Nexturastat A -0.028 | vemurafenib -0.033 | [5] -0.079 | [6] -0.294 | givinostat 0.055 | barasertib -0.073

MIF4GD isoform 3 (UniProt A9UHW6)
inactive: [1] 0.002 | [2] -0.065 | [3] 0.053 | [4] -0.006 | Nexturastat A -0.082 | vemurafenib 0.08 | [5] -0.034 | [6] -0.034 | givinostat -0.007 | barasertib 0.074

MIEN1 (UniProt Q9BRT3)
inactive: [1] -0.011 | [2] -0.029 | [3] 0.036 | [4] -0.054 | Nexturastat A -0.002 | vemurafenib 0.081 | [5] 0.073 | [6] 0.016 | givinostat 0 | barasertib 0.132

MIEF1 (UniProt L0R8F8)
inactive: [1] -0.007 | [2] 0.003 | [3] 0.019 | [4] -0.026 | Nexturastat A 0.092 | vemurafenib 0.079 | [5] 0.102 | [6] -0.001 | givinostat 0.006 | barasertib 0.003

MPHOSPH6 (UniProt Q99547)
inactive: [1] 0.009 | [2] 0.02 | [3] -0.1 | [4] -0.053 | Nexturastat A 0.185 | vemurafenib -0.045 | [5] 0.018 | [6] 0.001 | givinostat 0.12 | barasertib 0

MIPEP (UniProt Q99797)
inactive: [1] -0.001 | [2] 0.096 | [3] -0.009 | [4] 0.021 | Nexturastat A -0.059 | vemurafenib 0.015 | [5] 0.033 | [6] 0.007 | givinostat -0.019 | barasertib 0.001

MRPL28 (UniProt Q13084)
inactive: [1] 0.028 | [2] -0.034 | [3] -0.072 | [4] -0.021 | Nexturastat A 0.085 | vemurafenib -0.069 | [5] -0.007 | [6] 0.15 | givinostat -0.026 | barasertib -0.046

MOB1B isoform 2 (UniProt Q7L9L4)
inactive: [1] 0.014 | [2] 0.011 | [3] 0.02 | [4] 0.038 | Nexturastat A -0.022 | vemurafenib 0.017 | [5] 0.032 | [6] -0.079 | givinostat 0.012 | barasertib 0.012

MOCOS (UniProt Q96EN8)
inactive: [1] 0.045 | [2] 0.005 | [3] -0.027 | [4] -0.09 | Nexturastat A -0.039 | vemurafenib -0.039 | [5] 0.028 | [6] -0.054 | givinostat -0.023 | barasertib 0.062

MRPL14 (UniProt Q6P1L8)
inactive: [1] 0.076 | [2] 0.031 | [3] 0.066 | [4] -0.05 | Nexturastat A -0.13 | vemurafenib 0.025 | [5] -0.017 | [6] 0.039 | givinostat 0.104 | barasertib -0.026

MRPL27 (UniProt Q9P0M9)
inactive: [1] 0.121 | [2] -0.088 | [3] -0.064 | [4] -0.045 | Nexturastat A 0.179 | vemurafenib -0.142 | [5] 0.022 | [6] 0.218 | givinostat -0.029 | barasertib -0.125

MORC3 (UniProt Q14149)
inactive: [1] -0.02 | [2] -0.06 | [3] -0.025 | [4] 0.059 | Nexturastat A -0.296 | vemurafenib 0.095 | [5] 0.032 | [6] 0.11 | givinostat -0.193 | barasertib 0.102

MMGT1 isoform 2 (UniProt Q8N4V1)
inactive: [1] 0.028 | [2] 0 | [3] -0.008 | [4] 0.011 | Nexturastat A 0.004 | vemurafenib 0.025 | [5] 0.038 | [6] -0.084 | givinostat -0.009 | barasertib 0.015

MIF (UniProt P14174)
inactive: [1] 0.056 | [2] -0.014 | [3] 0.056 | [4] 0.098 | Nexturastat A -0.29 | vemurafenib -0.009 | [5] -0.047 | [6] -0.076 | givinostat -0.113 | barasertib -0.009

MICOS13 (UniProt Q5XKP0)
inactive: [1] 0.041 | [2] -0.06 | [3] 0.056 | [4] 0.065 | Nexturastat A -0.065 | vemurafenib 0.018 | [5] 0.077 | [6] -0.069 | givinostat 0.027 | barasertib 0.034

MINDY3 (UniProt Q9H8M7)
inactive: [1] -0.044 | [2] -0.009 | [3] -0.013 | [4] 0.039 | Nexturastat A -0.204 | vemurafenib -0.021 | [5] 0.028 | [6] 0.022 | givinostat -0.017 | barasertib 0.019

MICU2 (UniProt Q8IYU8)
inactive: [1] 0.022 | [2] 0.067 | [3] 0.091 | [4] 0.05 | Nexturastat A 0.198 | vemurafenib 0.053 | [5] 0.183 | [6] 0.042 | givinostat -0.009 | barasertib 0.079

MRPL18 (UniProt Q9H0U6)
inactive: [1] 0.057 | [2] -0.048 | [3] -0.048 | [4] -0.112 | Nexturastat A 0.21 | vemurafenib -0.197 | [5] -0.059 | [6] 0.089 | givinostat 0.049 | barasertib -0.022

MLYCD (UniProt O95822)
inactive: [1] 0.06 | [2] 0.009 | [3] 0.018 | [4] 0.015 | Nexturastat A -0.006 | vemurafenib 0.03 | [5] 0.027 | [6] 0.08 | givinostat 0.005 | barasertib 0.052

MRPL51 (UniProt Q4U2R6)
inactive: [1] 0.026 | [2] -0.005 | [3] -0.065 | [4] -0.12 | Nexturastat A 0.17 | vemurafenib -0.032 | [5] -0.042 | [6] 0.041 | givinostat 0.039 | barasertib -0.085

MRPL53 (UniProt Q96EL3)
inactive: [1] 0.051 | [2] -0.037 | [3] -0.032 | [4] -0.014 | Nexturastat A 0.18 | vemurafenib -0.135 | [5] -0.018 | [6] 0.038 | givinostat -0.034 | barasertib -0.059

MPI (UniProt P34949)
inactive: [1] -0.09 | [2] -0.013 | [3] 0.021 | [4] 0.01 | Nexturastat A -0.076 | vemurafenib 0.002 | [5] 0.01 | [6] -0.13 | givinostat -0.045 | barasertib 0.039

MRPL2 (UniProt Q5T653)
inactive: [1] 0.073 | [2] -0.027 | [3] -0.124 | [4] -0.058 | Nexturastat A 0.024 | vemurafenib 0.009 | [5] 0.008 | [6] 0.048 | givinostat 0.081 | barasertib 0

Copied from the listing (2 entries):
MPI (UniProt P34949)
inactive: [1] -0.09 | [2] -0.013 | [3] 0.021 | [4] 0.01 | Nexturastat A -0.076 | vemurafenib 0.002 | [5] 0.01 | [6] -0.13 | givinostat -0.045 | barasertib 0.039

MRPL2 (UniProt Q5T653)
inactive: [1] 0.073 | [2] -0.027 | [3] -0.124 | [4] -0.058 | Nexturastat A 0.024 | vemurafenib 0.009 | [5] 0.008 | [6] 0.048 | givinostat 0.081 | barasertib 0

The list continues:

MINK1 (UniProt Q8N4C8)
inactive: [1] -0.04 | [2] 0.038 | [3] -0.003 | [4] 0.029 | Nexturastat A -0.007 | vemurafenib -0.004 | [5] 0.024 | [6] 0.003 | givinostat -0.007 | barasertib -0.016

MRE11 isoform 3 (UniProt P49959)
inactive: [1] -0.02 | [2] -0.001 | [3] -0.002 | [4] 0.027 | Nexturastat A 0.006 | vemurafenib 0.007 | [5] -0.017 | [6] 0.12 | givinostat -0.047 | barasertib 0.024

MKRN2 (UniProt Q9H000)
inactive: [1] 0.147 | [2] 0.059 | [3] -0.002 | [4] 0.086 | Nexturastat A 0.091 | vemurafenib 0.095 | [5] 0.035 | [6] -0.045 | givinostat 0.083 | barasertib -0.098

MIS12 (UniProt Q9H081)
inactive: [1] -0.008 | [2] -0.141 | [3] -0.004 | [4] 0.044 | Nexturastat A 0.056 | vemurafenib 0.074 | [5] -0.002 | [6] 0.023 | givinostat 0.102 | barasertib 0.049

MOGS (UniProt Q13724)
inactive: [1] -0.017 | [2] -0.007 | [3] -0.005 | [4] -0.005 | Nexturastat A -0.003 | vemurafenib -0.027 | [5] 0.008 | [6] 0.038 | givinostat 0.01 | barasertib 0.017

From the supplement of paper PMC10849652
